Binding screen against folded nucleic acids

Targets (5′ to 3′):
SAM-II: SAM-II riboswitch RNA pseudoknot, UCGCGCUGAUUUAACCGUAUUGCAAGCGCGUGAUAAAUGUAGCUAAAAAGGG. About 21,000 compounds screened, about 200 hits.
PreQ1: PreQ1 riboswitch RNA pseudoknot, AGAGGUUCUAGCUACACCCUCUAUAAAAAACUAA. From B. subtilis. About 24,000 compounds screened, about 170 hits.
TPP: TPP riboswitch RNA three-way junction, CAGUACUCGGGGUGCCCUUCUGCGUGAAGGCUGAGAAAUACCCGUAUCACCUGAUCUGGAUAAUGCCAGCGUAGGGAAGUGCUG. About 24,000 compounds screened, about 160 hits.

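The test is a small-molecule microarray: each compound is printed twice on a reactive slide, and binding shows as fluorescence of the labelled oligonucleotide after washing. The data file lists only calls. An earlier report of the laboratory on the PreQ1, TPP and SAM-II riboswitches (doi:10.1038/s41467-019-09493-3) used 1 µM RNA for 2 h and required a mean Z-score above 3 (spot signal-to-noise against the whole library), a score well above that on a control array, and duplicate spots agreeing (coefficient of variation under 100); it then also set aside compounds that hit other targets, which this list keeps. The cut-offs behind this list may differ. These are primary screening calls, not affinities; a compound without a hit may have attached poorly or may still bind in solution.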
A compound is marked active if it was called a hit and inactive if it was screened but was not.
The compounds are a random part of those screened.
A target missing from an entry has no call listed here.

For OCC(CO)C1CCCCC1 the calls were SAM-II: inactive; PreQ1: inactive; TPP: inactive.
For Cc1cc(N(CCO)CCO)n2nc(Cc3ccccc3)nc2n1 the calls were PreQ1: inactive; TPP: inactive.
For CC(=O)[C@@]1(O)[C@H](C)C[C@H]2[C@@H]3C=C(C)C4=Cc5c(cnn5-c5ccccc5)C[C@]4(C)[C@H]3[C@@H](O)C[C@@]21C the calls were SAM-II: inactive; PreQ1: inactive; TPP: inactive.
For CCN1CCCCC1Cn1cnc(-c2ccccc2)c1-c1ccc(C#CCO)s1 (configuration not stated) the calls were SAM-II: inactive; PreQ1: inactive; TPP: inactive.
For O=S1(=O)C[C@H](NCCc2ccc(Cl)cc2)[C@@H](S(=O)(=O)c2ccccc2)C1 the calls were PreQ1: inactive; TPP: inactive.
For Cc1nc2cc(CNC(=O)c3cn(CCN)nn3)ccc2n1C the calls were SAM-II: inactive; PreQ1: inactive; TPP: inactive.
For CCOc1ccc(CN2CCN(c3ccnc4ccccc34)CC2CCO)cc1 (configuration not stated) the calls were SAM-II: inactive; PreQ1: inactive; TPP: inactive.
For CNC(=O)[C@@H]1C[C@H](N)CN1C(=O)Cc1ccc2c(c1)OCO2 the calls were SAM-II: inactive; PreQ1: inactive; TPP: inactive.
For Cc1ccc(NC2=C(C(N)=O)S(=O)(=O)c3ccccc32)cc1 the calls were PreQ1: inactive; TPP: inactive.
For CC(=O)Nc1ccc(N2CC(=O)C(c3nc4ccccc4n3C)=C2N)cc1 the calls were PreQ1: inactive; TPP: inactive.
For Cc1c(C(=O)N2CCCCC2)sc(N)c1C#N the calls were SAM-II: inactive; PreQ1: inactive; TPP: inactive.
For CC1CCc2c(sc3ncnc(N4CCN(CCO)CC4)c23)C1 (configuration not stated) the calls were SAM-II: inactive; PreQ1: inactive; TPP: inactive.
For CNC(=O)[C@@H]1C[C@@H](NC(=O)c2cc(C)oc2C)CN1c1ccnc(N)n1 the calls were SAM-II: inactive; PreQ1: inactive; TPP: inactive.
For CCOC(=O)c1ccc(NC2=NS(=O)(=O)C(c3ccc(Cl)cc3)=C2C)cc1 the calls were PreQ1: inactive; TPP: inactive.
For CCOC(=O)C1CCN(c2c(Nc3ccc(C)c(F)c3)c(=O)c2=O)CC1 the calls were SAM-II: inactive; PreQ1: inactive; TPP: inactive.
For CCOC(CN1C(=O)[C@](CC(=O)Nc2ccc(C)cc2)(NC(=O)Nc2ccc(C)cc2)c2ccccc21)OCC the calls were SAM-II: inactive; PreQ1: inactive; TPP: inactive.
For CCOC(=O)c1cccc(Nc2c(-c3ccc(C)o3)nc3cnccn23)c1 the calls were PreQ1: inactive; TPP: inactive.
For Cc1c(C(=O)NCCO)nnn1-c1ccc2noc(-c3ccccc3)c2c1 the calls were PreQ1: inactive; TPP: inactive.
For CCc1cc(N[C@H](CO)Cc2ccccc2)ncn1 the calls were SAM-II: inactive; PreQ1: inactive; TPP: inactive.
For Cc1cccc(C(C)C)c1NC(=O)CNCC1COc2ccccc2O1 (configuration not stated) the calls were SAM-II: inactive; PreQ1: inactive; TPP: inactive.

Some entries from above, unchanged:

{"compound": "Cc1cc(N(CCO)CCO)n2nc(Cc3ccccc3)nc2n1", "PreQ1": "inactive", "TPP": "inactive"}
{"compound": "CC(=O)Nc1ccc(N2CC(=O)C(c3nc4ccccc4n3C)=C2N)cc1", "PreQ1": "inactive", "TPP": "inactive"}

Calls as published in the ROBIN set (doi:10.1002/anie.202211358).